Data on 57 compounds can be found in PubChem BioAssay AID2685 (National Center for Advancing Translational Sciences (NCATS), 2010).

The assay can be described thus: qHTS Assay for Lipid Storage Modulators in Drosophila S3 Cells.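 On cell number change: cells counted by Cell Tracker Red CMTPX staining in the red channel.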 As to conditions: BODIPY lipid droplet fluorescence, 18-24 h; for cell number change: measured here: cell count max response, cells fed with added oleic acid. The method in brief:
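Laser-scanning cytometry quantifies lipid droplet accumulation (500–530 nm total intensity; droplet/cell object ratio) in oleic acid-fed (400 uM added) Drosophila S3 cells treated with a concentration series. 20 uM Triacsin C defined 100% inhibition.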
(Quantitative high-throughput screening tests each substance at several concentrations.)

The mark [1] stands for this setting: measured here: lipid fluorescence (Fed channel) AC50, cells fed with added oleic acid.
The mark [2] stands for this setting: measured here: cell number channel AC50, cells fed with added oleic acid.

Some of the results follow. These are further read-outs of the screen, such as a control signal, another cell line or another target. No call is given for them. Compounds called inactive in the main read-out are mostly missing here. The note in brackets gives the kind of curve behind each potency; many fits are weak. Where a SMILES comes first, the peptide text is derived from it. [ ]: non-standard residue; d: D form. The star is where a group is joined. ξ: configuration not given here. ξArg(NO2) = N=C(NCCCC(N)C(=O)O)N[N+](=O)[O-]; Bz = O=C(c1ccccc1)*

One may read the AC50 as the midpoint of the concentration-response curve, whichever way the signal moves. The low end stands for greater potency, the high end for weaker potency. With `N#Cc1c(Cl)nc(Cl)c2c1CCN(Cc1ccccc1)C2`, the cell number change is -9.41%. The AC50 under setting [1] is 29.1 µM [falling, single point].

`NCCc1c[nH]c2ccccc12`: the cell number change was found to be 5.03%. For the same compound, the AC50 under setting [1] is 7.31 µM [rising, partial curve, poor fit].

Take `CC/C(=C\C=C\[C@@H]1C=C[C@@H]2CCC[C@H]2[C@@H]1C(=O)c1ccc[nH]1)[C@@H]1O[C@@H]([C@@H](C)C(=O)O)CC[C@@H]1C`: the cell number change is -67.9%. For the same compound, the AC50 under setting [2] was 16.4 µM [falling, single point]. Further, the AC50 under setting [1] is 14.6 µM [falling, partial curve].

In the case of `FC(F)(F)c1ccccc1CNCCc1c[nH]c2ccccc12`, the cell number change is -46.9%. In addition, the AC50 under setting [2] was 7.31 µM [falling, partial curve, poor fit]. Further, the AC50 under setting [1] was 16.4 µM [falling, partial curve, poor fit].

Take `Cc1nc2ccccc2c(=O)n1-c1cccnc1`: the cell number change was determined as 7.93%. In addition, under setting [2], the AC50 was 0.13 µM [falling, full curve, poor fit].

As to `CCC(N)Cc1c[nH]c2ccccc12` (stereo not given), the cell number change was 5.72%. The AC50 under setting [1] was 1.46 µM [rising, partial curve, poor fit].

For the compound `CCCOC(=O)c1ccccc1C(=O)OCCC`, the cell number change was -33.2%. For the same compound, the AC50 under setting [2] is 0.00517 µM [falling, full curve, poor fit].

With `COCCNC(=O)c1c(N)n(Cc2ccco2)c2nc3ccccc3nc12`, the cell number change was found to be 1.89%.

As to `COc1cc(/C=C2/C(=O)NC(=O)N(c3ccc(C)cc3)C2=O)cc(OC)c1OC`, the cell number change amounted to 24.3%.

`COc1ccc(NC(=O)C2CCCN(S(=O)(=O)c3ccc4c(c3)oc(=O)n4C)C2)cc1OC` (stereo not given): the AC50 under setting [1] was 0.116 µM [rising, full curve, poor fit].

For the compound `CN1CCC(c2c[nH]c3ccccc23)C1` (stereo not given), the cell number change was -0.173%. Moreover, the AC50 under setting [1] was 32.6 µM [rising, single point].

In the case of `CCc1ccccc1N1C(=O)CC(=O)NC1=O`, the cell number change was -18.6%. Moreover, the AC50 under setting [1] was 25.9 µM [falling, partial curve].

For `Cc1c(C(=O)Nc2ccccc2)c2cc(O)ccc2n1Cc1ccccc1`, the cell number change is -1.05%. Further, the AC50 under setting [1] is 29.1 µM [falling, single point].

For `N/C(=N\[N+](=O)[O-])NCCCC(NC(=O)CNC(=O)c1ccccc1)C(=O)O` (stereo not given) (Bz-Gly-[ξArg(NO2)]-OH), the cell number change is -8.1%. For the same compound, the AC50 under setting [1] is 0.184 µM [falling, full curve, poor fit].

Turning to `C[n+]1c(-c2ccccc2)cc(-c2ccc(Cl)cc2)cc1-c1ccccc1`, the cell number change is -156%.

`CC(C)Cc1[nH]c(=O)c(C#N)c2c1CCC2`: the cell number change was -8.27%. For the same compound, the AC50 under setting [1] was 3.66 µM [falling, single point].

Consider `CC(NCc1ccc(Cl)c(Cl)c1)C(O)c1ccccc1` (stereo not given), for which the cell number change is -51.5%. Also, under setting [2], the AC50 was 16.4 µM [falling, partial curve]. Moreover, the AC50 under setting [1] was 29.1 µM [falling, single point].

For the compound `CCc1ccc(OCC(=O)N2CCN(Cc3ccc4c(c3)OCO4)CC2)cc1`, the cell number change is 23%. For the same compound, under setting [1], the AC50 was 0.116 µM [rising, full curve, poor fit].

`C=CCn1c(O)c(/C=C2/C=c3ccccc3=N2)c(=O)[nH]c1=S`: the cell number change came to 27%.

As to `Cn1cc(C(=O)NP(=O)(N2CCOCC2)N2CCOCC2)c2ccccc21`, the cell number change is -14.5%. In addition, under setting [1], the AC50 is 18.4 µM [falling, partial curve, poor fit].

As to `COC(=O)C1=C(c2ccc(OC(F)(F)F)cc2)C[C@@H]2CC[C@H]1N2C(=O)NCCCOC(C)C`, the cell number change is -6.81%. Under setting [1], the AC50 was 2.06 µM [rising, partial curve].

For `COc1cccc(NP(=O)(Oc2ccc(Cl)cc2)Oc2ccc(Cl)cc2)c1`, the cell number change was determined as 32.1%. Besides, the AC50 under setting [2] is 1.64 µM [falling, partial curve]. The AC50 under setting [1] was 29.1 µM [rising, single point].

For the compound `CN(C)c1ccc(/C=C/C=C/c2sc3ccccc3[n+]2C)cc1`, the cell number change was -1.12%.

Take `Cc1ccc(N2C(=O)NC(=O)/C(=C/c3ccoc3)C2=O)cc1`: the cell number change was -30.6%. For the same compound, the concentration at half-maximal activity (AC50) under setting [2] is 0.0058 µM [falling, full curve, poor fit]. The AC50 under setting [1] was 1.3 µM [falling, partial curve].

With `COc1ccc(CC2(CCc3ccncc3)C(=O)NC(=O)NC2=O)cc1`, the cell number change was 15.3%.

Regarding `Cc1ccc(-c2cc(-c3ccc(C)cc3)[n+](-c3ccc(C(=O)[O-])cc3)c(-c3ccc(C)cc3)c2)cc1`, the cell number change is -32.7%. The AC50 under setting [2] is 14.6 µM [falling, partial curve, poor fit]. Moreover, under setting [1], the AC50 is 2.31 µM [falling, partial curve, poor fit].

As for `CCn1ccnc1CN1CCCC(C(=O)c2cc(F)ccc2OC)C1` (stereo not given), the cell number change was -14.5%. Besides, under setting [1], the AC50 was 32.6 µM [falling, single point].

With `O=c1[nH]c(=O)n(Cc2ccc(F)cc2)c(O)c1C=NCCCn1ccnc1`, the AC50 under setting [1] was 0.461 µM [rising, single point].

For the compound `CN1C(=O)C(=Cc2ccccc2OCc2ccc(C(=O)O)cc2)C(=O)N(C)C1=O`, the cell number change stood at 92%. In addition, the AC50 under setting [2] was 0.731 µM [rising, single point]. Also, under setting [1], the AC50 was 0.461 µM [rising, partial curve, poor fit].

Take `Cc1ccc(C(=O)C2CN(C)CC2C(=O)c2ccc(C)cc2)cc1` (stereo not given): the cell number change is -15.8%. For the same compound, the AC50 under setting [2] is 0.731 µM [falling, single point]. The AC50 under setting [1] is 0.731 µM [falling, partial curve, poor fit].

Turning to `CC(N=Cc1c(O)[nH]c(=O)[nH]c1=O)c1ccccc1` (stereo not given), the cell number change was 10.9%. Moreover, the AC50 under setting [1] was 1.46 µM [falling, full curve].

Turning to `c1ccc(CNc2c3c(nc4ccccc24)CCC3)cc1`, the cell number change was -53.5%. Under setting [2], the AC50 was 9.2 µM [falling, partial curve]. Further, the AC50 under setting [1] was 5.8 µM [falling, full curve, poor fit].

Take `COc1ccccc1OCC#CCN1CCCC(C)C1` (stereo not given): the cell number change turned out to be 15%. Besides, the AC50 under setting [1] was 23.1 µM [falling, single point].

Take `CCNc1nc2[nH]c(=O)c3c(c2s1)OC(N)=C(C#N)C3c1cccs1` (stereo not given): the cell number change was -22.3%. The AC50 under setting [1] is 4.11 µM [rising, single point].

As for `CN(C(=O)c1ccc(Cl)nc1)C1(c2ccccc2Cl)CCCCC1=O` (stereo not given), the cell number change stood at 17.1%.

As for `CC(C)CCn1c(=O)c(C(=O)NCc2ccco2)c(O)c2ccccc21`, the cell number change is -3.74%. Also, the AC50 under setting [1] was 2.31 µM [rising, single point].

With `CCOc1ccc(-c2cc(C)[n+](CCN(CC)CC)c(-c3ccc(OCC)cc3)c2)cc1`, the cell number change was -59.6%. Moreover, the concentration at half-maximal activity (AC50) under setting [2] is 8.2 µM [falling, partial curve]. For the same compound, the AC50 under setting [1] is 9.2 µM [falling, partial curve, poor fit].

As for `COC(=O)C1=C(N)Oc2c(c(=O)oc3ccccc23)C1c1cccnc1` (stereo not given), the cell number change worked out at 54.6%. The AC50 under setting [2] is 2.31 µM [rising, partial curve]. Moreover, under setting [1], the AC50 was 0.092 µM [rising, full curve, poor fit].

As to `CC(C)N1OC2CC1c1nc3ccccc3n1C2` (stereo not given), the cell number change was determined as 22.8%. In addition, the AC50 under setting [2] is 0.0731 µM [rising, full curve, poor fit].

Take `COc1ccc(Oc2cc(NC(=O)c3nn(C)cc3[N+](=O)[O-])cc([N+](=O)[O-])c2)cc1`: the cell number change was determined as 8.77%.

Consider `CN(C)C(Cc1ccccc1)C(=O)c1cccs1` (stereo not given), for which the AC50 under setting [1] is 6.51 µM [rising, single point].

In the case of `COc1ccccc1N1C(=O)NC(=O)C(CCc2ccncc2)(CCc2ccncc2)C1=O`, the cell number change stood at 53.5%. For the same compound, the AC50 under setting [2] is 29.1 µM [rising, single point]. In addition, the AC50 under setting [1] was 6.51 µM [rising, single point].

For `CN1CC(C(=O)c2ccc(F)cc2)C(c2ccc(F)cc2)C1` (stereo not given), the cell number change stood at 18%. Further, the AC50 under setting [1] is 5.8 µM [rising, single point].

As to `Cc1cccn2c(=O)c3c(nc12)N1CCc2ccccc2C1C1(C3)C(=O)NC(=O)N(C)C1=O` (stereo not given), the cell number change was 11.5%. For the same compound, the AC50 under setting [2] was 0.058 µM [rising, full curve, poor fit].

`C=CCn1c(O)c(C(C)=Nc2cc(OC)ccc2OC)c(=O)[nH]c1=O`: the cell number change was -6.21%. Also, the AC50 under setting [1] was 0.184 µM [rising, full curve, poor fit].

Take `O=C(c1cc(F)ccc1F)C1CCCN(Cc2cc(Cl)ccc2O)C1` (stereo not given): the cell number change was found to be 6.2%.

As to `O=[N+]([O-])c1ccc(N2CCOCC2)c2cccnc12`, the cell number change was -6.15%. In addition, the AC50 under setting [2] was 1.64 µM [rising, partial curve]. Besides, the AC50 under setting [1] is 6.51 µM [rising, single point].

Take `CCOC(=O)c1c(C)n(Cc2ccco2)c2c1cc(O)c1ccccc12`: the cell number change was -15.6%. Besides, the AC50 under setting [1] is 5.17 µM [rising, partial curve].

Take `CCOP(=O)(OCC)C(NC(=O)c1ccccc1C)C(Cl)(Cl)Cl` (stereo not given): the cell number change was -25.7%. Also, the AC50 under setting [1] is 5.8 µM [falling, partial curve, poor fit].

Turning to `COc1ccccc1C1C([N+](=O)[O-])=C(N)Oc2c1c(=O)oc1ccccc21` (stereo not given), under setting [1], the AC50 is 0.461 µM [falling, full curve].

Consider `CCCNC(=O)N1[C@H]2CC[C@@H]1C(C(=O)OC)=C(c1ccc(OC)c(OC)c1)C2`, for which the cell number change is -7.8%. The half-maximal activity concentration (AC50) under setting [1] was 23.1 µM [rising, single point].

For `COC(=O)C1=C(c2ccc(Cl)c(C(F)(F)F)c2)C[C@@H]2CC[C@H]1N2C(=O)NCCCOC(C)C`, the cell number change was -6.98%. Also, under setting [1], the AC50 is 6.51 µM [rising, single point].

Regarding `O=C1NC(=O)N(Cc2ccccc2)C(=O)/C1=C/C=C/c1ccco1`, the cell number change was -50%. Moreover, the AC50 under setting [2] was 29.1 µM [falling, single point]. Besides, the AC50 under setting [1] is 23.1 µM [falling, single point].

On to `Cn1c(=O)c2c(ncn2CCCl)n(C)c1=O`, for which the cell number change was determined as 5.02%. The AC50 under setting [1] is 0.517 µM [rising, partial curve, poor fit].

In the case of `CCCNS(=O)(=O)c1ccc(OCC(=O)N2CCN(Cc3ccc4c(c3)OCO4)CC2)cc1`, the cell number change worked out at 145%. In addition, under setting [2], the AC50 was 29.1 µM [rising, single point]. For the same compound, under setting [1], the AC50 was 29.1 µM [rising, single point].

Regarding `CC(C)(C)n1cc(C(=O)c2ccccc2OCCCF)cn1`, the cell number change was -9.07%.

Turning to `CC[N+](CC)(CC)CCCOC(=O)C(O)(c1ccccc1)C1CCCCC1` (stereo not given), the cell number change was -14.6%. The AC50 under setting [1] is 20.6 µM [falling, partial curve].
